This is one part of the list. The data scatter; read single values as rough.
biological target: T1, WDR91 C366 (UniProt A4D1P6); assay: log2 mean competition ratio of IA-DTB cysteine labelling (DMSO/compound) (log2 ratio); higher = stronger cysteine engagement by compound; conditions: 50 µM; treatment time: 4 h; cell line lysate: HEK293T
T1 sequence (whole entry): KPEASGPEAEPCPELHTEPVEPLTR
Description: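 IA-DTB competitive cysteine chemoproteomics in HEK293T RIPA lysate. Lysates were treated with compound 29 or 30 at 50 or 200 µM for 4 h, then IA-DTB (500 µM, 1 h), trypsin-digested, NeutrAvidin-enriched and analysed by diaPASEF. Competition ratio = intensity DMSO / intensity compound (n=4 treated, n=64 DMSO); binding: mean log2 CR ≥ 1 and p ≤ 0.05 plus QC filters. Target is the cysteine site.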

Amino acid sequences for entries named in this document (tags omitted). A change or cut given only in a name is not applied to a line headed by its entry.
UniProt A4D1P6: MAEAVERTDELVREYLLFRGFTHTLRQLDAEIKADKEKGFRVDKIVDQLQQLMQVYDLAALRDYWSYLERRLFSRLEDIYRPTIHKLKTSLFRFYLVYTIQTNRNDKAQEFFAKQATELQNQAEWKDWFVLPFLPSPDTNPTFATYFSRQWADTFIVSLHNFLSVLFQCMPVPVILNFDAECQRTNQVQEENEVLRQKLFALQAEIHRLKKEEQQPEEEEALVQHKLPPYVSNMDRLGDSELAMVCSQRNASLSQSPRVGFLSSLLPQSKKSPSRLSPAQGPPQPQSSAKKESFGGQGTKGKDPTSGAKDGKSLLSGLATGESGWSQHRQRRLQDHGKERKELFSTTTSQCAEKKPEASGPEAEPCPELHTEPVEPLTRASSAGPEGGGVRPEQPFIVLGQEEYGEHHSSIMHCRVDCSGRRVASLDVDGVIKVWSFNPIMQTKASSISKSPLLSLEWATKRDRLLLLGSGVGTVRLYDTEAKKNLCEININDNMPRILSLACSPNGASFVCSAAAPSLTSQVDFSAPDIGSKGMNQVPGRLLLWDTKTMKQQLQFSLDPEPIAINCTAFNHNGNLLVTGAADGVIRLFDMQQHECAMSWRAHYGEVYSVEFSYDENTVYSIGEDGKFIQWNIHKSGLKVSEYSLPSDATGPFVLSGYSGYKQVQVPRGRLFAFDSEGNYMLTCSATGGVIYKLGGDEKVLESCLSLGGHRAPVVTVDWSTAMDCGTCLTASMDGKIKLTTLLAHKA

SMILES	log2 mean competition ratio
O=C(CCl)N[C@@H]1CCCc2ccccc21	-0.264
O=C(CCl)N[C@H]1CCCc2ccccc21	0.158

same assay, conditions: 200 µM; treatment time: 4 h; cell line lysate: HEK293T

SMILES	log2 mean competition ratio
O=C(CCl)N[C@@H]1CCCc2ccccc21	-0.0656
O=C(CCl)N[C@H]1CCCc2ccccc21	-0.133

From the supplement of paper PMC11732987, “Enantioselective OTUD7B fragment discovery through chemoproteomics screening and high-throughput optimisation” (Communications Chemistry, 2025)
